PubChem BioAssay AID504784 | Drosophila RNAi Screening Center, 2011

- Purpose: 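Search for regulators of lipid droplet storage in oleate-fed fly cells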 (primary screen)
- System: Drosophila Kc167 embryonic cells
- Reagent: long dsRNA against Drosophila genes, about 250 ng dsRNA per well
- Duration: 4 days
- Challenge: cells fed 400 µM oleic acid bound to BSA
- Read-out: 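Microscope images give a droplet-to-nucleus area ratio, taken as log and converted to a screen-wide B-score; higher values mean greater lipid storage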
- Direction: droplet/nuclear area B-score: higher = more stored lipid (overstorage)
The deposit covers about 17,000 reagents; shown is an unselected part of those that have a named target and a result. 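Each column is one replicate's B-score; the combined score over replicates was not deposited, so single values may mislead.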 A plus sign joins genes that one reagent is predicted to hit.

| droplet/nuclear area B-score, replicate 1 | droplet/nuclear area B-score, replicate 2 | droplet/nuclear area B-score, replicate 3 | predicted target | DRSC id |
| --- | --- | --- | --- | --- |
| 1.89 | -0.691 | – | PlexA (Plexin A) | DRSC17220 |
| 2.3 | 0.823 | – | mRpL20 (mitochondrial ribosomal protein L20) | DRSC09828 |
| 2.84 | -1.55 | 0.664 | CG17841 | DRSC17737 |
| -0.924 | -1.33 | – | ecd (ecdysoneless) | DRSC08574 |
| -0.0131 | -2.12 | – | CstF64 (Cleavage stimulation factor 64 kD subunit) | DRSC16616 |
| 0.632 | 1.51 | – | Chd3 | DRSC11114 |
| 0.576 | -0.176 | – | CG11634 | DRSC03700 |
| 0.195 | 0.328 | – | CG31337 | DRSC12981 |
| -0.525 | -0.919 | 0.652 | GstD7 (Glutathione S transferase D7) | DRSC16688 |
| -1.34 | -0.369 | – | SdhA (Succinate dehydrogenase, subunit A (flavoprotein)) | DRSC07547 |
| -0.278 | -0.0937 | – | CG12171 | DRSC12200 |
| -0.434 | -1.31 | – | CG31326 | DRSC16532 |
| -1.98 | -0.476 | – | Pepck1 (Phosphoenolpyruvate carboxykinase 1) | DRSC07505 |
| 0.796 | -0.0287 | – | Dad | DRSC16642 |
| -0.971 | -0.0237 | – | CG18011 | DRSC06697 |
| -2.69 | 0.186 | – | CG18011 | DRSC06706 |
| 0.625 | -0.569 | – | CG1142 | DRSC12531 |
| 1.05 | 2.06 | – | CG14007 | DRSC02339 |
| 6.8 | -0.0682 | – | CG8399 | DRSC07163 |
| -1.09 | -0.457 | 0.00638 | Drep3 (DNA fragmentation factor-related protein 3) | DRSC06312 |
| -0.37 | 0.0849 | – | Drep3 (DNA fragmentation factor-related protein 3) | DRSC07529 |
| -0.0246 | 0.0128 | – | Drep3 (DNA fragmentation factor-related protein 3) | DRSC22344 |
| -1.05 | -2.6 | – | Mal-A3 (Maltase A3) | DRSC07462 |
| 0.0937 | 0.63 | – | CG4382 | DRSC02743 |
| -1.02 | -2.18 | – | run (runt) | DRSC20584 |
| 0.0252 | 0.248 | – | run (runt) | DRSC21515 |
| 0.0184 | -0.00605 | – | CG34235 + CG30058 + CG34312 | DRSC22142 |
| 1.12 | 0.00156 | – | CG13627 | DRSC14629 |
| -0.42 | 4.23 | – | Rbp9 (RNA-binding protein 9) | DRSC00416 |
| 1.32 | 2.61 | – | Rbp9 (RNA-binding protein 9) | DRSC00779 |
| -2.86 | -2.31 | -2.18 | Bx42 | DRSC17743 |
| -0.0315 | -0.29 | 0.0441 | l(1)G0320 (lethal (1) G0320) | DRSC18255 |
| -0.903 | 0.56 | – | CG31287 | DRSC13138 |
| -1.77 | 0.778 | – | dgt3 (dim gamma-tubulin 3) | DRSC04349 |

Single entries from the entries so far.
Result of Drep3 (DNA fragmentation factor-related protein 3) [DRSC07529] under “droplet/nuclear area B-score, replicate 1”: -0.37
Value for l(1)G0320 (lethal (1) G0320) [DRSC18255] under “droplet/nuclear area B-score, replicate 2”: -0.29
CG13627 [DRSC14629], droplet/nuclear area B-score, replicate 2: 0.00156
Dad [DRSC16642], droplet/nuclear area B-score, replicate 1 → 0.796
For “droplet/nuclear area B-score, replicate 1”, Chd3 [DRSC11114] reads 0.632
Under “droplet/nuclear area B-score, replicate 1”, run (runt) [DRSC21515] reads 0.0252
